These are yes or no findings as the source states them, for the method shown. In cells and extracts the contact can be indirect. Some results given as binding are weak or reduced against the parent protein; the word gives no strength.
Key:
[1] = biological target: Beclin1 (human (endogenous in HUVECs)) (UniProt Q14457); test: co-IP; lysates of HUVECs exposed to 1.25 mM METH for 24 h; immunoprecipitated with Beclin1 antibody or normal IgG, protein A/G-agarose beads at 4 °C for 12 h; blotted with Bcl-2 antibody
[2] = biological target: Bcl-2 (rat (endogenous in CMECs)) (UniProt P49950); test: co-IP; lysates of rat CMECs exposed to 0.5 mM METH for 24 h; immunoprecipitated with Bcl-2 antibody or normal IgG; blotted with Beclin1 antibody

Protein sequences, listed by entry. Tags and fused reporters are not part of them.
UniProt Q14457: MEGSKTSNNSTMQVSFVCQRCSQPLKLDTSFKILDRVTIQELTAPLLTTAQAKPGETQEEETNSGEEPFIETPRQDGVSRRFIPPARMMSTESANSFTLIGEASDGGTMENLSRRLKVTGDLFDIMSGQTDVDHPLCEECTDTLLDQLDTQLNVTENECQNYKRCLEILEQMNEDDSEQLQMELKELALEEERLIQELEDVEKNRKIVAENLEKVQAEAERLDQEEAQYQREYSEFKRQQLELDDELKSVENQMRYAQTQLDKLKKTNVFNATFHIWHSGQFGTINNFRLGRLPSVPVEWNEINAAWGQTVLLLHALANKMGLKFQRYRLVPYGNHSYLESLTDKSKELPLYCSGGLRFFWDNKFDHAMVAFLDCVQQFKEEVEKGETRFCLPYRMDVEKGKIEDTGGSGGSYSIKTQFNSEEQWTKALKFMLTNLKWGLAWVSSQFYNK
UniProt P49950: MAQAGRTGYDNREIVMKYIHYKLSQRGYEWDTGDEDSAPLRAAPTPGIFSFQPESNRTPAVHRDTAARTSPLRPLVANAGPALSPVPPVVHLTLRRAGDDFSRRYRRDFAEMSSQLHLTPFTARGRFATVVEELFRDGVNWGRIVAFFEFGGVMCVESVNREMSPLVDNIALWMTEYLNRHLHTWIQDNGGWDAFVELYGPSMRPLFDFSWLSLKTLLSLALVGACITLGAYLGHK
UniProt P10415: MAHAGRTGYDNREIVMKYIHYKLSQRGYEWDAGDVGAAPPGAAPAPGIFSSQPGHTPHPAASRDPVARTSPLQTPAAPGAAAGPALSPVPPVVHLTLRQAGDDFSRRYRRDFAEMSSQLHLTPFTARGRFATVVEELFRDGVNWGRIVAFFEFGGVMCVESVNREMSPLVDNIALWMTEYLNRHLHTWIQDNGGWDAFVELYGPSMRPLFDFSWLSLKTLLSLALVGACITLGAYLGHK
UniProt Q91XJ1: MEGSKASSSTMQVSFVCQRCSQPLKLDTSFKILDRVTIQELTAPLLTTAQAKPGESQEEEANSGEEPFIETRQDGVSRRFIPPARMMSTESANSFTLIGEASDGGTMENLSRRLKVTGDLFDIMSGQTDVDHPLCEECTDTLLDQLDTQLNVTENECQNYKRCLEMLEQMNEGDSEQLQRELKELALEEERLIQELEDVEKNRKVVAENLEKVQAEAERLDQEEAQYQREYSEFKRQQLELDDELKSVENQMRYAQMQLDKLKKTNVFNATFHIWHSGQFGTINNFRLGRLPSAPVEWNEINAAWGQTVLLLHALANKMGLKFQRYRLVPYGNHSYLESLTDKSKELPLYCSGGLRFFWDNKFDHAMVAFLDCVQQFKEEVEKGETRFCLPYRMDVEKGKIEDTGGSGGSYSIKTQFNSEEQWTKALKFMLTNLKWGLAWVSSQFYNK

Substance: Bcl-2 (from UniProt P10415 1-239)
- binding [1]: binds

Substance: Beclin1 (from UniProt Q91XJ1 1-448)
- binding [2]: binds

Reference: publication PMC4823965
